Values from PubChem BioAssay AID743458 (Peter MacCallum Cancer Centre, 2014).

Aim: 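Find knock-downs that make vorinostat-resistant colon cancer cells sensitive again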 (follow-up of hits)
Cells: human HCT116-VR colon cancer cells made resistant to vorinostat
Reagents: single siRNA or pool against human genes, 25 nM per single siRNA
Duration: about 72 h after transfection, including 24 h of drug
Challenge: vorinostat, 2.5 µM final, for 24 h
Read-out: 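Live-cell fluorescent viability and luminescent caspase 3/7 activity after vorinostat treatment, background subtracted, mean of duplicate plates, as fold change over mock-transfected wells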
Scale: viability relative to mock: higher = more living cells than mock; caspase activity relative to mock: higher = more apoptosis than mock
Rule for the call: 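Active means a reduced-viability or caspase-activation class, anything else inactive; classes could only be given to wells that looked healthy when left untreated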
The whole screen tested about 1,800 reagents; this is a random part of them. Of all reagents, 732 (41%) are marked active. 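Calls are per siRNA reagent; a gene was deemed confirmed only if most of its four siRNAs scored.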 Reagents against one gene are numbered here.

| gene | reagent | viability relative to mock | caspase activity relative to mock | viability hit class | caspase hit class | activity call |
| --- | --- | --- | --- | --- | --- | --- |
| SEC61B | 1 | 0.24 | 2.91 | no change | no change | inactive |
| SEC61B | 2 | 0.8 | 1.27 | no change | no change | inactive |
| SEC61B | 3 | 0.94 | 0.95 | no change | no change | inactive |
| SEC61B | 4 | 0.5 | 2 | reduced viability | no change | active |
| CGRRF1 | 1 | 0.78 | 2.13 | no change | no change | inactive |
| CGRRF1 | 2 | 0.8 | 3.2 | no change | caspase activation | active |
| CGRRF1 | 3 | 1 | 2.33 | no change | no change | inactive |
| CGRRF1 | 4 | 0.88 | 0.94 | no change | no change | inactive |
| AMDHD2 | 1 | 0.86 | 3.56 | no change | caspase activation | active |
| AMDHD2 | 2 | 0.81 | 1.47 | no change | no change | inactive |
| AMDHD2 | 3 | 0.54 | 4.12 | reduced viability | caspase activation | active |
| AMDHD2 | 4 | 0.72 | 2.99 | no change | caspase activation | active |
| PPP4R4 | 1 | 1.08 | 1.56 | no change | no change | inactive |
| PPP4R4 | 2 | 0.22 | 2.5 | reduced viability | no change | active |
| PPP4R4 | 3 | 0.65 | 1.73 | no change | no change | inactive |
| PPP4R4 | 4 | 0.94 | 1.61 | no change | no change | inactive |

4 entries from above, sorted by “caspase activity relative to mock”, descending:
| gene | reagent | viability relative to mock | caspase activity relative to mock | viability hit class | caspase hit class | activity call |
| --- | --- | --- | --- | --- | --- | --- |
| CGRRF1 | 2 | 0.8 | 3.2 | no change | caspase activation | active |
| CGRRF1 | 1 | 0.78 | 2.13 | no change | no change | inactive |
| SEC61B | 4 | 0.5 | 2 | reduced viability | no change | active |
| SEC61B | 3 | 0.94 | 0.95 | no change | no change | inactive |

The list goes on:
| gene | reagent | viability relative to mock | caspase activity relative to mock | viability hit class | caspase hit class | activity call |
| --- | --- | --- | --- | --- | --- | --- |
| EXOSC5 | 1 | 0.65 | 1.31 | no change | no change | inactive |
| EXOSC5 | 2 | 0.64 | 2.24 | no change | no change | inactive |
| EXOSC5 | 3 | 0.67 | 0.84 | no change | no change | inactive |
| EXOSC5 | 4 | 0.17 | 3 | reduced viability | caspase activation | active |
| PCP2 | 1 | 0.88 | 1.85 | no change | no change | inactive |
| PCP2 | 2 | 0.7 | 2.94 | no change | caspase activation | active |
| PCP2 | 3 | 0.45 | 2.9 | reduced viability | caspase activation | active |
| PCP2 | 4 | 0.75 | 0.57 | no change | no change | inactive |
| POLR2L | 1 | 0.46 | 4.7 | reduced viability | caspase activation | active |
| POLR2L | 2 | 0.44 | 3.71 | reduced viability | caspase activation | active |
| POLR2L | 3 | 0.68 | 3.21 | no change | caspase activation | active |
| POLR2L | 4 | 0.34 | 4.58 | reduced viability | caspase activation | active |
| KCNE1 | 1 | 0.86 | 1.36 | no change | no change | inactive |
| KCNE1 | 2 | 0.96 | 1.21 | no change | no change | inactive |
| KCNE1 | 3 | 0.99 | 1.12 | no change | no change | inactive |
| KCNE1 | 4 | 0.98 | 1.25 | no change | no change | inactive |
| CDK10 | 1 | 0.88 | 4.18 | no change | caspase activation | active |
| CDK10 | 2 | 1.01 | 1.36 | no change | no change | inactive |
| CDK10 | 3 | 0.76 | 1.38 | no change | no change | inactive |
| CDK10 | 4 | 1.1 | 5.01 | no change | caspase activation | active |
| NR1H2 | 1 | 0.56 | 1.85 | reduced viability | no change | active |
| NR1H2 | 2 | 0.15 | 3.89 | reduced viability | caspase activation | active |
| NR1H2 | 3 | 1.06 | 1.04 | no change | no change | inactive |
| NR1H2 | 4 | 0.64 | 1.71 | no change | no change | inactive |
| NR1H2 | 5 | 0.86 | 5.48 | no change | caspase activation | active |
